According to the supplement of paper PMC8728848:
The list shows a part of the results.

How the values were obtained:
Assay in all cases: glycan array binding signal (z-score within array); higher = stronger binding
Conditions in all cases: glycan notation: IUPAC condensed, linker removed
Gal3S(b1-4)Glc = system: Gal3S(b1-4)Glc
Summary of the method: (§1)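 The binding signal is a Z-score computed within each array and averaged over linkers. Arrays of the same protein sequence at different concentrations or buffers were also averaged together. Data originate from 3228 arrays in the Consortium for Functional Glycomics database, kept only where the protein sequence was available.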

[1] = system: Gal3S(b1-4)[Fuc(a1-3)]Glc6S
Summary of the method: as §1

[2] = system: Gal3S(b1-4)[Fuc(a1-3)]Glc
Summary of the method: as §1

Gal3S4S(b1-4)GlcNAc = system: Gal3S4S(b1-4)GlcNAc
Summary of the method: as §1

Gal3S6S(b1-4)GlcNAc6S = system: Gal3S6S(b1-4)GlcNAc6S
Summary of the method: as §1

Gal3S6S(b1-4)GlcNAc = system: Gal3S6S(b1-4)GlcNAc
Summary of the method: as §1

Gal4S(b1-4)GlcNAc = system: Gal4S(b1-4)GlcNAc
Summary of the method: as §1

Gal4S6S(b1-4)GlcNAc = system: Gal4S6S(b1-4)GlcNAc
Summary of the method: as §1

Gal6P(b1-4)GlcNAc = system: Gal6P(b1-4)GlcNAc
Summary of the method: as §1

Gal6S(b1-3)GlcNAc6S = system: Gal6S(b1-3)GlcNAc6S
Summary of the method: as §1

Gal6S(b1-3)GlcNAc = system: Gal6S(b1-3)GlcNAc
Summary of the method: as §1

Gal6S(b1-4)Glc6S = system: Gal6S(b1-4)Glc6S
Summary of the method: as §1

Gal6S(b1-4)GlcNAc6S = system: Gal6S(b1-4)GlcNAc6S
Summary of the method: as §1

Gal6S(b1-4)GlcNAc = system: Gal6S(b1-4)GlcNAc
Summary of the method: as §1

Gal6S(b1-4)Glc = system: Gal6S(b1-4)Glc
Summary of the method: as §1

[3] = system: GalNAc(a1-3)GalNAc(b1-3)Gal(a1-4)Gal(b1-4)GlcNAc
Summary of the method: as §1

[4] = system: GalNAc(a1-3)GalNAc(b1-3)Gal(a1-4)Gal(b1-4)Glc
Summary of the method: as §1

GalNAc(a1-3)GalNAc = system: GalNAc(a1-3)GalNAc
Summary of the method: as §1

GalNAc(a1-3)Gal = system: GalNAc(a1-3)Gal
Summary of the method: as §1

[5] = system: GalNAc(b1-3)Gal(a1-4)Gal(b1-4)GlcNAc(b1-3)Gal(b1-4)Glc
Summary of the method: as §1

[6] = system: GalNAc(b1-3)Gal(a1-4)Gal(b1-4)GlcNAc
Summary of the method: as §1

[7] = system: GalNAc(b1-3)Gal(a1-6)Gal(b1-4)Glc
Summary of the method: as §1

GalNAc(b1-3)GalNAc = system: GalNAc(b1-3)GalNAc
Summary of the method: as §1

GalNAc(b1-3)Gal = system: GalNAc(b1-3)Gal
Summary of the method: as §1

GalNAc(b1-4)Gal(b1-4)Glc = system: GalNAc(b1-4)Gal(b1-4)Glc
Summary of the method: as §1

[8] = system: GalNAc(b1-4)GlcNAc(b1-2)Man(a1-3)[GalNAc(b1-4)GlcNAc(b1-2)Man(a1-6)]Man(b1-4)GlcNAc(b1-4)GlcNAc
Summary of the method: as §1

GalNAc(b1-4)GlcNAc6S = system: GalNAc(b1-4)GlcNAc6S
Summary of the method: as §1

GalNAc(b1-4)GlcNAc = system: GalNAc(b1-4)GlcNAc
Summary of the method: as §1

GalNAc(b1-6)GalNAc = system: GalNAc(b1-6)GalNAc
Summary of the method: as §1

GalNAc3S(b1-4)GlcNAc3S = system: GalNAc3S(b1-4)GlcNAc3S
Summary of the method: as §1

GalNAc3S(b1-4)GlcNAc = system: GalNAc3S(b1-4)GlcNAc
Summary of the method: as §1

GalNAc4S6S(b1-4)GlcNAc = system: GalNAc4S6S(b1-4)GlcNAc
Summary of the method: as §1

GalNAc6S(b1-4)GlcNAc = system: GalNAc6S(b1-4)GlcNAc
Summary of the method: as §1

[9] = system: Glc(a1-4)Glc(a1-4)Glc(a1-4)Glc
Summary of the method: as §1

Glc(a1-4)Glc = system: Glc(a1-4)Glc
Summary of the method: as §1

[10] = system: Glc(a1-6)Glc(a1-6)Glc(a1-6)Glc
Summary of the method: as §1

Glc(a1-6)Glc(a1-6)Glc = system: Glc(a1-6)Glc(a1-6)Glc
Summary of the method: as §1

Glc(b1-4)Glc = system: Glc(b1-4)Glc
Summary of the method: as §1

Glc(b1-6)Glc = system: Glc(b1-6)Glc
Summary of the method: as §1

GlcA(b1-3)Gal = system: GlcA(b1-3)Gal
Summary of the method: as §1

GlcA(b1-3)GlcNAc = system: GlcA(b1-3)GlcNAc
Summary of the method: as §1

GlcA(b1-6)Gal = system: GlcA(b1-6)Gal
Summary of the method: as §1

[11] = system: GlcNAc(a1-3)Gal(b1-4)GlcNAc
Summary of the method: as §1

[12] = system: GlcNAc(a1-4)Gal(b1-3)GlcNAc
Summary of the method: as §1

[13] = system: GlcNAc(a1-4)Gal(b1-4)GalNAc
Summary of the method: as §1

[14] = system: GlcNAc(a1-4)Gal(b1-4)GlcNAc(b1-3)Gal(b1-4)GlcNAc(b1-3)Gal(b1-4)GlcNAc
Summary of the method: as §1

[15] = system: GlcNAc(a1-4)Gal(b1-4)GlcNAc(b1-3)Gal(b1-4)GlcNAc
Summary of the method: as §1

[16] = system: GlcNAc(a1-4)Gal(b1-4)GlcNAc(b1-3)Gal(b1-4)Glc
Summary of the method: as §1

[17] = system: GlcNAc(a1-4)Gal(b1-4)GlcNAc(b1-3)Gal(b1-4)[Fuc(a1-3)]GlcNAc(b1-3)Gal(b1-4)[Fuc(a1-3)]GlcNAc
Summary of the method: as §1

[18] = system: GlcNAc(a1-4)Gal(b1-4)GlcNAc
Summary of the method: as §1

[19] = system: GlcNAc(a1-6)Gal(b1-4)GlcNAc
Summary of the method: as §1

[20] = system: GlcNAc(b1-2)Gal(b1-3)GalNAc
Summary of the method: as §1

Wza (Escherichia coli), P0A930
glycan array binding signal (z-score) (Gal3S(b1-4)Glc): 1.76
glycan array binding signal (z-score) [1]: 0.421
glycan array binding signal (z-score) [2]: 0.16
glycan array binding signal (z-score) (Gal3S4S(b1-4)GlcNAc): 0.644
glycan array binding signal (z-score) (Gal3S6S(b1-4)GlcNAc6S): 0.78
glycan array binding signal (z-score) (Gal3S6S(b1-4)GlcNAc): -0.768
glycan array binding signal (z-score) (Gal4S(b1-4)GlcNAc): -0.184
glycan array binding signal (z-score) (Gal4S6S(b1-4)GlcNAc): 0.304
glycan array binding signal (z-score) (Gal6P(b1-4)GlcNAc): -1.21
glycan array binding signal (z-score) (Gal6S(b1-3)GlcNAc6S): 0.434
glycan array binding signal (z-score) (Gal6S(b1-3)GlcNAc): -0.247
glycan array binding signal (z-score) (Gal6S(b1-4)Glc6S): -0.752
glycan array binding signal (z-score) (Gal6S(b1-4)GlcNAc6S): 0.571
glycan array binding signal (z-score) (Gal6S(b1-4)GlcNAc): 0.029
glycan array binding signal (z-score) (Gal6S(b1-4)Glc): -0.9
glycan array binding signal (z-score) [3]: -0.725
glycan array binding signal (z-score) [4]: -0.987
glycan array binding signal (z-score) (GalNAc(a1-3)GalNAc): -0.127
glycan array binding signal (z-score) (GalNAc(a1-3)Gal): -1.26
glycan array binding signal (z-score) [5]: 0.429
glycan array binding signal (z-score) [6]: -0.316
glycan array binding signal (z-score) [7]: 1.39
glycan array binding signal (z-score) (GalNAc(b1-3)GalNAc): -0.525
glycan array binding signal (z-score) (GalNAc(b1-3)Gal): 1.73
glycan array binding signal (z-score) (GalNAc(b1-4)Gal(b1-4)Glc): 0.463
glycan array binding signal (z-score) [8]: -0.166
glycan array binding signal (z-score) (GalNAc(b1-4)GlcNAc6S): 0.065
glycan array binding signal (z-score) (GalNAc(b1-4)GlcNAc): 0.869
glycan array binding signal (z-score) (GalNAc(b1-6)GalNAc): 0.418
glycan array binding signal (z-score) (GalNAc3S(b1-4)GlcNAc3S): 0.061
glycan array binding signal (z-score) (GalNAc3S(b1-4)GlcNAc): 2.01
glycan array binding signal (z-score) (GalNAc4S6S(b1-4)GlcNAc): 0.454
glycan array binding signal (z-score) (GalNAc6S(b1-4)GlcNAc): -0.405
glycan array binding signal (z-score) [9]: -1.74
glycan array binding signal (z-score) (Glc(a1-4)Glc): -0.206
glycan array binding signal (z-score) [10]: 1.7
glycan array binding signal (z-score) (Glc(a1-6)Glc(a1-6)Glc): -0.936
glycan array binding signal (z-score) (Glc(b1-4)Glc): -0.707
glycan array binding signal (z-score) (Glc(b1-6)Glc): 1.01
glycan array binding signal (z-score) (GlcA(b1-3)Gal): -1.24
glycan array binding signal (z-score) (GlcA(b1-3)GlcNAc): -0.753
glycan array binding signal (z-score) (GlcA(b1-6)Gal): -1.45
glycan array binding signal (z-score) [11]: 0.237
glycan array binding signal (z-score) [12]: -0.897
glycan array binding signal (z-score) [13]: -0.321
glycan array binding signal (z-score) [14]: -0.23
glycan array binding signal (z-score) [15]: -0.769
glycan array binding signal (z-score) [16]: 0.214
glycan array binding signal (z-score) [17]: 3.13
glycan array binding signal (z-score) [18]: 1.07
glycan array binding signal (z-score) [19]: 0.459
glycan array binding signal (z-score) [20]: -0.909
